# Record: PubChem BioAssay AID1053208 (Peter MacCallum Cancer Centre, 2014)
# Aim: 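Genes whose silencing cuts survival of bone tumour cells only with doxorubicin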 (primary screen)
# Cells: mouse osteosarcoma cells, early-passage culture from an engineered mouse model of fibroblastic bone tumour
# Reagent: siRNA pool against mouse genes, 40 nM
# Timing: about 120 h (48 h before drug, then 72 h with drug)
# Challenge: doxorubicin 100 nM for 72 h, roughly 30-40% inhibitory dose
# Detection: 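Viability read as ATP luminescence after 72 h of 100 nM doxorubicin or none, duplicate wells averaged, scaled to non-targeting siRNA, then expressed as robust z-scores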
# Reading the numbers: viability z-score with doxorubicin and doxorubicin viability vs non-targeting: higher = more viable cells under doxorubicin; viability z-score without drug: higher = more viable cells with knock-down alone; z-score of drug to no-drug ratio: higher = less drug sensitisation by knock-down
# Active means: 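Called active if knock-down leaves viability unchanged without drug (z within -2 to 2) but lowers it with doxorubicin (z at or under -2)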
# Here is one part, drawn at random, of about 17,000 deposited reagents. Over the whole deposit, 788 (4.7%) were called active. 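Calls rest on z-score classes alone; an extra cut-off of viability at most 70% of control was not applied to them.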
gene,combined z-score class,viability z-score with doxorubicin,viability z-score without drug,z-score of drug to no-drug ratio,doxorubicin viability vs non-targeting,outcome
Atl3 (atlastin GTPase 3),no change with or without drug,-1.35,-0.17,-1.24,0.82,inactive
Eddm3b (epididymal protein 3B),no change with or without drug,-1.91,0.34,-2.14,0.77,inactive
Pank3 (pantothenate kinase 3),no change with or without drug,0.34,-0.17,0.56,0.97,inactive
Tsx (testis specific X-linked gene),no change with or without drug,-0.79,-0.51,-0.34,0.87,inactive
Urm1 (ubiquitin related modifier 1),no change with or without drug,0.9,0,1.01,1.02,inactive
Cops7b (COP9 signalosome subunit 7B),high cell count without drug only,0.9,2.02,-0.34,1.02,inactive
Or1s2 (olfactory receptor family 1 subfamily S member 1),no change with or without drug,0.34,-0.84,1.12,0.97,inactive
Gpr50 (G-protein-coupled receptor 50),no change with or without drug,0.11,0.84,-0.34,0.95,inactive
AI837181 (expressed sequence AI837181),no change with or without drug,-1.01,-1.01,-0.22,0.85,inactive
Tasor2 (transcription activation suppressor family member 2),no change with or without drug,0.45,0.17,0.45,0.98,inactive
Slc17a7,no change with or without drug,1.35,1.18,0.67,1.06,inactive
1700120K04Rik (RIKEN cDNA 1700120K04 gene),low cell count with doxorubicin only,-3.6,0.17,-3.71,0.62,active
Rida (reactive intermediate imine deaminase A homolog),no change with or without drug,1.8,0.84,1.35,1.1,inactive
Hax1 (HCLS1 associated X-1),no change with or without drug,0.67,1.35,-0.11,1,inactive
Ramp3 (receptor (calcitonin) activity modifying protein 3),no change with or without drug,-0.67,0.51,-0.9,0.88,inactive
Rnf13 (ring finger protein 13),no change with or without drug,-0.34,-0.51,0.11,0.91,inactive
"Lgals7 (lectin, galactose binding, soluble 7)",no change with or without drug,1.57,1.52,0.67,1.08,inactive
Rad54l (RAD54 like (S. cerevisiae)),no change with or without drug,1.35,0.51,1.12,1.06,inactive
Nudt4 (nudix hydrolase 4),no change with or without drug,-0.45,-1.18,0.45,0.9,inactive
Fnbp1 (formin binding protein 1),no change with or without drug,-0.45,-0.34,-0.11,0.9,inactive
Ccl11 (C-C motif chemokine ligand 11),no change with or without drug,-0.45,-1.52,0.79,0.9,inactive
Rtl8c (retrotransposon Gag like 8C),no change with or without drug,0.45,-0.17,0.67,0.98,inactive
Ikzf2 (IKAROS family zinc finger 2),low cell count without drug only,0.9,-4.05,5.17,1.02,inactive
Pigr (polymeric immunoglobulin receptor),no change with or without drug,-0.34,-0.67,0.22,0.91,inactive
Or51f23 (olfactory receptor family 51 subfamily F member 23),no change with or without drug,-1.01,-1.85,0.34,0.85,inactive
Cyc1 (cytochrome c-1),low cell count without drug only,0.9,-2.19,2.92,1.02,inactive
Aebp1 (AE binding protein 1),no change with or without drug,1.35,0.17,1.35,1.06,inactive
Gne,no change with or without drug,-1.12,0.17,-1.12,0.84,inactive
Mup3 (major urinary protein 3),no change with or without drug,0,-0.51,0.45,0.94,inactive
Usp8 (ubiquitin specific peptidase 8),no change with or without drug,-1.69,-0.17,-1.57,0.79,inactive
Vmn1r177 (vomeronasal 1 receptor 177),no change with or without drug,-0.9,-0.84,-0.22,0.86,inactive
Bbs1 (Bardet-Biedl syndrome 1),no change with or without drug,0.45,0.17,0.45,0.98,inactive
Uox (urate oxidase),no change with or without drug,-1.57,-0.17,-1.46,0.8,inactive
Vegfb (vascular endothelial growth factor B),low cell count with and without drug,-2.7,-2.02,-1.57,0.7,inactive
Taar6 (trace amine-associated receptor 6),no change with or without drug,0.45,-0.34,0.79,0.98,inactive
Slc43a3,no change with or without drug,-0.11,-0.17,0.11,0.93,inactive
"Gria3 (glutamate receptor, ionotropic, AMPA3 (alpha 3))",no change with or without drug,1.35,-0.17,1.69,1.06,inactive
Adam4 (a disintegrin and metallopeptidase domain 4),no change with or without drug,0,0.17,0,0.94,inactive
Ssh2 (slingshot protein phosphatase 2),low cell count without drug only,-0.67,-2.19,1.01,0.88,inactive
Ttyh1 (tweety family member 1),low cell count with doxorubicin only,-2.92,-0.84,-2.47,0.68,active
Pafah1b2,no change with or without drug,0.67,-0.84,1.46,1,inactive
Cd8b1 (CD8 subunit beta 1),no change with or without drug,-1.01,-1.18,-0.11,0.85,inactive
Il17re (interleukin 17 receptor E),no change with or without drug,0,0.84,-0.45,0.94,inactive
Slc41a1,low cell count with doxorubicin only,-2.7,-0.51,-2.47,0.7,active
Kdm4d (lysine (K)-specific demethylase 4D),no change with or without drug,1.01,1.35,0.22,1.03,inactive
Asic1 (acid-sensing ion channel 1),no change with or without drug,-0.22,-0.51,0.22,0.92,inactive
Mlec (malectin),no change with or without drug,0.79,0.84,0.34,1.01,inactive
Scamp3,no change with or without drug,1.57,1.18,0.9,1.08,inactive
Mst1r,no change with or without drug,-0.56,-0.51,-0.11,0.89,inactive
"Atad1 (ATPase family, AAA domain containing 1)",no change with or without drug,0.22,0.17,0.22,0.96,inactive

An excerpt of the results above:
gene,combined z-score class,viability z-score with doxorubicin,viability z-score without drug,z-score of drug to no-drug ratio,doxorubicin viability vs non-targeting,outcome
Usp8 (ubiquitin specific peptidase 8),no change with or without drug,-1.69,-0.17,-1.57,0.79,inactive
Vmn1r177 (vomeronasal 1 receptor 177),no change with or without drug,-0.9,-0.84,-0.22,0.86,inactive
Bbs1 (Bardet-Biedl syndrome 1),no change with or without drug,0.45,0.17,0.45,0.98,inactive
Uox (urate oxidase),no change with or without drug,-1.57,-0.17,-1.46,0.8,inactive
Vegfb (vascular endothelial growth factor B),low cell count with and without drug,-2.7,-2.02,-1.57,0.7,inactive
Taar6 (trace amine-associated receptor 6),no change with or without drug,0.45,-0.34,0.79,0.98,inactive
